For two molecules, binding results are on record in US20160362472A1 (published 2016).

Amino acid sequences for entries named in this document (tags omitted). Residues count along the entry.
UniProt P20273, residues 20-687: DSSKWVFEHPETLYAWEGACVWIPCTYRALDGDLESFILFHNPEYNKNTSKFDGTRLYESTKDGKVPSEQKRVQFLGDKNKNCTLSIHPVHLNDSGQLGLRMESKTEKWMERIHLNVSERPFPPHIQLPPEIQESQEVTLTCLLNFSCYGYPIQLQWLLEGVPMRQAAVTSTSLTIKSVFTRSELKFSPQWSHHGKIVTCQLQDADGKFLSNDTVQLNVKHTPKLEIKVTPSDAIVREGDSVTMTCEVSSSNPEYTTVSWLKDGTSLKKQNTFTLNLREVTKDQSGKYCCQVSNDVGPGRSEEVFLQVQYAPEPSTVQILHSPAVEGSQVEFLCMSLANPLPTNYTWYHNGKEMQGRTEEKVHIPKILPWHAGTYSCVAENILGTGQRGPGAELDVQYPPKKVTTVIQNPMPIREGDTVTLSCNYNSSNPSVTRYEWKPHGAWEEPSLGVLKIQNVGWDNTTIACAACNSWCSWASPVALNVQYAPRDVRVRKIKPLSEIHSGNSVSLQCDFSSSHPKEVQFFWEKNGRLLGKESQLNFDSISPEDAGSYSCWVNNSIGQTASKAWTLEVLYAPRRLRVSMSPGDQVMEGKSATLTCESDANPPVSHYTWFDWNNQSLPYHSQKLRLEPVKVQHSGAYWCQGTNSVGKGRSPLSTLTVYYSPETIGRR

This experiment concerns the target CD22 target antigen coated on plate (UniProt P20273). In words: NFAT-luciferase activation of CAR JNL cells on CD22-coated plate.

Results are given in words; binding and its absence hold for the method and conditions named. Some results given as binding are weak or reduced against the parent protein; the word gives no strength.

B1: CAR22-12 (scFv)
scFv: EVQLQQSGPGLVKPSQTLSLTCAISGDSVLSNSDTWNWIRQSPSRGLEWLGRTYHRSTWYDDYASSVRGRVSINVDTSKNQYSLQLNAVTPEDTGVYYCARDRLQDGNSWSDAFDVWGQGTMVTVSSGGGGSGGGGSGGGGSQSALTQPASASGSPGQSVTISCTGTSSDVGGYNYVSWYQQHPGKAPKLMIYDVSNRPSGVSNRFSGSKSGNTASLTISGLQAEDEADYYCSSYTSSSTLYVFGTGTQLTVL
notes: scFv domain of a CAR on T cells or JNL cells; also called CD22 CAR clone 12; hCD22-12
On to B1, for which the binding entry is “binds”.

B2: CAR22-53 (scFv)
scFv: EVQLQQSGPGLVKPSQTLSLTCAISGDSVSSNSAAWNWIRQSPSRGLEWLGRTYYRSKWYSDYAVSVKSRITINPDTSKNQFSLQLNSVTPEDTAVYYCARDPYDFWSGYPDAFDIWGQGTMVTVSSGGGGSGGGGSGGGGSQSALTQPASVSGSPGQSITISCTGTSSDVGGYNYVSWYQQHPGKAPKVIISEVNNRPSGVSHRFSGSKSGNTASLTISGLQAEDEADYFCSSYTSGRTLYVFGTGSKVTVLG
notes: scFv domain of a CAR on JNL cells or T cells; also called CD22-53; hCD22-53
Consider B2, for which the binding entry is “binds”.
